{"source": "paper PMC12040169", "about": "(PLOS Biology, 2025)", "note": "The list shows a part of the results."}
{"tested_on": "T1, CTL2-GFP (C. trachomatis L2/434/Bu, GFP-expressing)", "T1 construct": "L2/434/Bu, GFP-expressing", "set-up": "species or system HeLa; Intracellular C. trachomatis growth in HeLa cells, bulk GFP fluorescence relative to DMSO", "conditions": "bulk GFP, single well; 28.5 h, 10 µM; inhibitor", "units": {"% of control remaining": "%"}}
{"smiles": "COc1cc(C(=O)Nc2ccc3[nH]ccc3c2)cc(OC)c1OC", "note": "[CBK159696]", "% of control remaining": 117.725}
{"smiles": "CCOC(=O)N1CCC(NC(=O)N2CCN(c3cc(C(F)(F)F)ccn3)CC2)CC1", "note": "[CBK162353]", "% of control remaining": 113.719}
{"smiles": "Cc1[nH]c2ccccc2c1C(=O)CSc1nccn1Cc1ccccc1", "note": "[CBK297905]", "% of control remaining": 154.529}
{"smiles": "O=C(NCc1ccc(F)cc1)c1ccc(Cn2ccnc2)cc1", "note": "[CBK297719]", "% of control remaining": 128.454}
{"smiles": "O=C(CCCn1cc([N+](=O)[O-])cn1)Nc1cc(C(F)(F)F)ccc1Cl", "note": "[CBK293987]", "% of control remaining": 127.663}
{"smiles": "O=S(=O)(c1ccccc1C(F)(F)F)n1ccc2c(N3CCNCC3)nccc21", "note": "[CBK045605C]", "% of control remaining": 58.2521}
{"smiles": "COC(=O)c1ccc(C2N(Cc3ccccc3)CCN2Cc2ccccc2)cc1", "note": "[CBK265201]", "% of control remaining": 100}
{"smiles": "Fc1ccc(CN2C3CCCC2CC(NC(=S)NC2CCCCC2)C3)cc1", "note": "(stereo not shown) [CBK121172]", "% of control remaining": 128.344}
{"smiles": "N#CCCn1cc(C(=O)N2CCOCC2)c(-c2ccc(F)cc2)n1", "note": "[CBK306189]", "% of control remaining": 106.355}
{"smiles": "CS(=O)(=O)Nc1cc2ccccc2c(-c2ccsc2)n1", "note": "[CBK085748]", "% of control remaining": 147.707}
{"smiles": "Cc1c(-c2ccc(Cl)cc2Cl)nc2ccccc2c1C(=O)NCc1ccc(S(N)(=O)=O)cc1", "note": "[CBK265387]", "% of control remaining": 110.493}
{"smiles": "Cc1ccc(C2=CCN(C(=O)c3cccc(S(=O)(=O)N(C)C)c3)CC2)cc1", "note": "[CBK298273]", "% of control remaining": 101.381}
{"smiles": "CC1(c2ccc(Br)cc2)NC(=O)CS1", "note": "(stereo not shown) [CBK018962]", "% of control remaining": 120.71}
{"smiles": "NC(=O)C(NCc1ccccc1)c1ccc(Cl)cc1", "note": "(stereo not shown) [CBK012748]", "% of control remaining": 127.021}
{"smiles": "C=Cn1ncc(CN2CCC(O)(c3ccccc3C)CC2)c1C", "note": "[CBK282582]", "% of control remaining": 101.219}
{"smiles": "Cn1c(COc2ccc(Cl)cc2Cl)nnc1SCC(=O)N1c2ccccc2SC2C=CC=CC21", "note": "(stereo not shown) [CBK268359]", "% of control remaining": 158.907}
{"smiles": "O=S(=O)(c1ccc(-c2ccccc2)cc1)N1CCCN(Cc2cccc(F)c2F)CC1", "note": "[CBK063111]", "% of control remaining": 100.318}
{"smiles": "COc1cc(C)c(NC(=O)c2cnc(-c3ccc(F)cc3)c(-c3ccncc3)c2)cc1OC", "note": "[CBK036575]", "% of control remaining": 115.035}
{"smiles": "COC(=O)C1(Cc2ccccc2-c2ccncc2)CCOCC1", "note": "[CBK284709]", "% of control remaining": 126.399}
{"smiles": "O=C(CCS(=O)(=O)c1cc(Cl)ccc1Cl)OCC(=O)c1ccccc1", "note": "[CBK261256]", "% of control remaining": 100}
{"smiles": "COc1cccc(C(=O)Nc2ccc(O)cc2C(=O)O)c1", "note": "[CBK268662]", "% of control remaining": 112.94}
{"smiles": "Cc1cn(CC(=O)N2CCN(c3ncccn3)CC2)c(=O)[nH]c1=O", "note": "[CBK144513]", "% of control remaining": 121.2}
{"smiles": "O=C(NCCCn1ccnc1)c1cccs1", "note": "[CBK261740]", "% of control remaining": 99.4947}
{"smiles": "O=C(O)C1CCN(C2CC(=O)N(Cc3ccccc3)C2=O)CC1", "note": "(stereo not shown) [CBK287206]", "% of control remaining": 127.609}
{"smiles": "O=C(O)CCC(=O)N1N=C2C(=Cc3ccco3)CCCC2C1c1ccco1", "note": "(stereo not shown) [CBK296069]", "% of control remaining": 123.658}
{"smiles": "COc1ccccc1CC(=O)Nc1ccc(OCC(=O)O)cc1", "note": "[CBK264194]", "% of control remaining": 126.805}
{"smiles": "C=CCn1c(Cc2csc(NC(=O)c3ccc(OC)c(OC)c3)n2)n[nH]c1=S", "note": "[CBK295324]", "% of control remaining": 180.016}
{"smiles": "Cc1nccc(-c2cccc(NC3CCN(c4ccc5c(c4)OCCO5)CC3)c2)n1", "note": "[CBK286439]", "% of control remaining": 113.977}
{"smiles": "O=C(NCc1ccco1)[C@@H]1C=CCN1C(=O)NCc1ccccc1", "note": "[CBK284293]", "% of control remaining": 135.934}
{"smiles": "CCOC(=O)c1sc2ncccc2c1N", "note": "[CBK115371]", "% of control remaining": 111.239}
{"smiles": "Cc1cccc(N2CCN(C(=O)C3C4CCC(O4)C3C(=O)O)CC2)c1C", "note": "(stereo not shown) [CBK287044]", "% of control remaining": 131.482}
{"smiles": "Nc1ncc(-c2cccc(CO)c2)nc1N1CCOCC1", "note": "[CBK063406]", "% of control remaining": 209.208}
{"smiles": "COC(=O)c1ccc2c(=O)n(CC(C)C)c(SC)nc2c1", "note": "[CBK306042]", "% of control remaining": 148.469}
{"smiles": "O=C(CS(=O)(=O)c1ccccc1)Nc1cccc2nsnc12", "note": "[CBK267949]", "% of control remaining": 127.243}
{"smiles": "Oc1cc(C(F)(F)F)nc(N2CCCC2)n1", "note": "[CBK002389]", "% of control remaining": 116.515}
{"smiles": "CCn1nc(C)c(-c2cncn2CCN(C)C2CCCC2)c1C", "note": "[CBK281569]", "% of control remaining": 93.6933}
{"smiles": "CCC1CCCCN1C(=O)c1cccc(C)c1C", "note": "(stereo not shown) [CBK081501]", "% of control remaining": 152.692}
{"smiles": "OCC1CCCN1c1nccnc1-c1ccccc1F", "note": "(stereo not shown) [CBK038037]", "% of control remaining": 95.5194}
{"smiles": "O=C(O)/C=C/C(=O)NCCc1c[nH]c2ccccc12", "note": "[CBK287222]", "% of control remaining": 112.42}
{"smiles": "Cc1ccc2cc(CN(CCNC(=O)OC(C)(C)C)C(=O)NCc3ccccc3)c(=O)[nH]c2c1C", "note": "[CBK132097]", "% of control remaining": 99.0205}
{"smiles": "Cn1c(C(O)c2ccccc2)n[nH]c1=S", "note": "(stereo not shown) [CBK012984]", "% of control remaining": 96.1671}
{"smiles": "Cc1nn(CCS(C)(=O)=O)c(C)c1CN1CCOC(c2ccccc2)C1", "note": "(stereo not shown) [CBK306162]", "% of control remaining": 139.533}
{"smiles": "O=C(O)c1cc(-c2ccc(/C=C3\\NC(=O)N(Cc4ccccc4)C3=O)o2)ccc1Cl", "note": "[CBK078117]", "% of control remaining": 115.092}
{"smiles": "CS(=O)(=O)N1CCc2cc(-c3cn4ccccc4n3)ccc21", "note": "[CBK285190]", "% of control remaining": 128.23}
{"smiles": "Cn1cnc([N+](=O)[O-])c1Oc1ccccc1OCc1ccccc1", "note": "[CBK002747]", "% of control remaining": 96.1947}
{"smiles": "O=C(CC(NC1CCCC1)C(=O)O)Nc1cccc(Cl)c1", "note": "(stereo not shown) [CBK266831]", "% of control remaining": 177.445}
{"smiles": "O=C(NC(=S)N1CCN(CCN2C(=O)c3cccc4cccc(c34)C2=O)CC1)c1ccc2c(c1)OCO2", "note": "[CBK263577]", "% of control remaining": 100}
{"smiles": "CC(NC(=O)C1CC(=O)OC1(C)C)c1ccc2c(c1)CCCO2", "note": "(stereo not shown) [CBK281613]", "% of control remaining": 148.536}
{"smiles": "CCOc1ccc(-c2nc(C#N)c(NCCN3CCOCC3)o2)cc1", "note": "[CBK265867]", "% of control remaining": 102.804}
{"smiles": "Cc1ccc2oc(=O)cc(N/N=C(\\Cl)C(N)=S)c2c1", "note": "[CBK022357]", "% of control remaining": 104.315}
{"smiles": "O=C(O)CN(CC(=O)Nc1ccc(Cl)cc1)Cc1ccccc1", "note": "[CBK286585]", "% of control remaining": 107.789}
{"smiles": "CC1=NN(c2cccc(S(=O)(=O)O)c2C(=O)Nc2ccccc2)C(=O)C1", "note": "[CBK017343]", "% of control remaining": 88.7999}
